Values quoted from earlier work as cited in patent publication US9114165B2 (Spain Pharma S.A., priority 2010, dated 2015).
Values after ≈ are worked out from the molar mass of the structure shown. Like-named read-outs stand apart in the source and are kept apart here.

Details: in water

solubility (at acidic pHs): 78 micrograms/mL
solubility (at alkaline pHs): 291 mg/mL (≈ 1410 mM)
Structure (SMILES): CC(C)Cc1ccc(C(C)C(=O)O)cc1 (centres unmarked) [Ibuprofen, 2-(4-Isobutylphenyl)-propionic acid]
